Single values of this set are uncertain.
B1: Rpb7; numbered along this chain (parent)
chain: MFFIKDLSLNITLHPSFFGPRMKQYLKTKLLEEVEGSCTGKFGYILCVLDYDNIDIQRGRILPTDGSAEFNVKYRAVVFKPFKGEVVDGTVVSCSQHGFEVQVGPMKVFVTKHLMPQDLTFNAGSNPPSYQSSEDVITIKSRIRVKIEGCISQVSSIHAIGSIKEDYLGAI

Legend:
[1] = variants of: B1; test: log2 fold change of mutant abundance, UV-irradiated vs unirradiated; higher = more UV resistant (enriched after UV); settings: with Saccharomyces cerevisiae rad7Δ rad26Δ; UV dose (J/m2): 10; genetic background: rad7Δ rad26Δ rpb7Δ + plasmid RPB7 library; outgrowth: 10 cell divisions
[2] = variants of: B1; test: NOISeq theta enrichment statistic, UV-irradiated vs unirradiated (dimensionless); higher = more UV resistant (enriched after UV); settings: with Saccharomyces cerevisiae rad7Δ rad26Δ; UV dose (J/m2): 10; genetic background: rad7Δ rad26Δ rpb7Δ + plasmid RPB7 library; outgrowth: 10 cell divisions

Variant | log2 fold change of mutant abundance [1] | NOISeq theta enrichment statistic [2]
V110M | 0.184 | 0.387
V110Q | -0.372 | -0.241
V110R | 0.071 | 0.0669
V110S | 0.102 | 0.0686
V110T | 0.65 | 0.349
V110W | -0.0131 | -0.0202
T111A | 0.0515 | 0.19
T111D | 0.181 | 0.179
T111E | -0.0161 | -0.0219
T111G | 0.116 | 0.109
T111H | 0.373 | 0.239
T111I | 1.33 | 2.43
T111K | 0.0147 | 0.111
T111L | 1.1 | 0.931
T111M | 0.853 | 0.71
T111N | 0.261 | 0.371
T111P | 0.266 | 0.636
T111Q | 0.00332 | 0.0043
T111R | -0.0273 | -0.0498
T111S | -0.551 | -1.89
T111V | 0.845 | 0.682
K112A | 0.172 | 0.128
K112E | 0.0733 | 0.191

Single entries from the list.
Entry for V110Q under log2 fold change of mutant abundance [1]: -0.372
Entry for T111Q under log2 fold change of mutant abundance [1]: 0.00332

Two entries from above, in markdown.

| Variant | log2 fold change of mutant abundance [1] | NOISeq theta enrichment statistic [2] |
| --- | --- | --- |
| T111G | 0.116 | 0.109 |
| T111H | 0.373 | 0.239 |

(further entries)

Variant | log2 fold change of mutant abundance [1] | NOISeq theta enrichment statistic [2]
K112G | -0.028 | -0.026
K112H | 0.776 | 0.538
K112I | 0.271 | 0.194
K112L | 0.115 | 0.0458
K112M | -0.0586 | -0.126
K112N | 0.0484 | 0.195
K112P | -0.419 | -0.293
K112Q | -0.159 | -0.29
K112R | -0.0955 | -0.506
K112S | -0.187 | -0.143
K112T | 0.105 | 0.245
K112V | -0.323 | -0.179
K112W | 0.108 | 0.0661
H113A | 0.101 | 0.12
H113C | -0.927 | -0.514
H113D | 1.04 | 1.41
H113E | 0.256 | 0.249
H113F | 0.666 | 0.293
H113G | 0.749 | 0.474
H113I | 0.137 | 0.104
H113K | 0.109 | 0.134
H113L | 0.695 | 1.63
H113N | 0.223 | 0.854

Variant | log2 fold change of mutant abundance [1] | NOISeq theta enrichment statistic [2]
H113P | 0.0912 | 0.309
H113Q | 0.255 | 1.1
H113R | 0.164 | 0.582
H113S | -0.0122 | -0.0125
H113T | -0.0237 | -0.0329
H113V | 0.798 | 0.548
H113Y | -0.0619 | -0.212
L114A | -0.327 | -0.238
L114F | -0.186 | -0.149
L114H | 0.352 | 0.326
L114I | 0.369 | 0.298
L114K | -0.142 | -0.113
L114M | 0.0506 | 0.186
L114P | -0.232 | -0.512
L114Q | -0.571 | -1.56
L114R | -0.103 | -0.403
L114S | 0.0325 | 0.0412
L114T | -0.049 | -0.0361
L114V | 0.0767 | 0.11
L114W | 0.107 | 0.0875
M115A | -0.548 | -0.351
M115C | -0.426 | -0.214
M115D | 0.0664 | 0.0727

Variant | log2 fold change of mutant abundance [1] | NOISeq theta enrichment statistic [2]
M115E | 0.0405 | 0.038
M115F | 0.507 | 0.395
M115G | -0.0576 | -0.0488
M115I | 0.162 | 0.875
M115K | -0.118 | -0.378
M115L | 0.0175 | 0.0596
M115N | -0.405 | -0.295
M115Q | -0.295 | -0.225
M115R | 0.00418 | 0.0117
M115S | 0.0205 | 0.0181
M115T | -0.0628 | -0.149
M115V | 0.0501 | 0.186
M115W | 0.353 | 0.285
P116A | -0.0616 | -0.133
P116D | 0.482 | 0.315
P116H | -0.0476 | -0.322
P116I | 0.105 | 0.0935
P116K | -0.953 | -0.501
P116L | -0.123 | -0.252
P116N | -0.0504 | -0.0483
P116Q | 0.0517 | 0.0616
P116R | -0.0373 | -0.0586
P116S | -0.05 | -0.129

Variant | log2 fold change of mutant abundance [1] | NOISeq theta enrichment statistic [2]
P116T | 0.0232 | 0.134
P116Y | 0.523 | 0.315
Q117A | 0.0108 | 0.00673
Q117D | 0.545 | 0.294
Q117E | 0.0155 | 0.0303
Q117H | -0.00509 | -0.0349
Q117I | -0.406 | -0.26
Q117K | -0.0457 | -0.205
Q117L | 0.0946 | 0.472
Q117N | -0.0756 | -0.0685
Q117P | 0.0357 | 0.0777
Q117R | -0.0224 | -0.0979
Q117S | -0.138 | -0.162
Q117T | -0.00439 | -0.00487
Q117V | 0.129 | 0.0782
Q117Y | 0.557 | 0.345
D118A | 0.0676 | 0.129
D118C | -0.203 | -0.134
D118E | 0.00598 | 0.046
D118G | 0.00739 | 0.0268
D118H | -0.0822 | -0.0953
D118I | 0.0268 | 0.0162
D118K | 0.221 | 0.199
